Test [1] deals with T1, human PXR-GST (Invitrogen) (human) (UniProt O75469).
T1 sequence (looked up): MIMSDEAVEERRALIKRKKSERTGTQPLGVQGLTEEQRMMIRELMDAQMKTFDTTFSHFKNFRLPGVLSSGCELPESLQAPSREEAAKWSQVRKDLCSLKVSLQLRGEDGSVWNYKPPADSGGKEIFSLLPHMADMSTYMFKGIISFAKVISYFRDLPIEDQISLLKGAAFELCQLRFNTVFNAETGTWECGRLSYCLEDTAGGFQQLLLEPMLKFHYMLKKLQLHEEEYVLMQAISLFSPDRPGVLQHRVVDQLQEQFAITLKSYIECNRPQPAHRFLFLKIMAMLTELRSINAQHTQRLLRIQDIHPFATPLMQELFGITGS
Kind of test: Biacore; GST-PXR captured on anti-GST antibody.

Test [2] concerns the target T2, biotinylated murine IL-17 (murine) (UniProt Q62386).
T2 sequence (biotinylated (site not stated), looked up): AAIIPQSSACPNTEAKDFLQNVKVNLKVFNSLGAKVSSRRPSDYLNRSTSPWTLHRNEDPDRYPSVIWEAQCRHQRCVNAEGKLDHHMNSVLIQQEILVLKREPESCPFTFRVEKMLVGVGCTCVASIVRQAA
Kind of test: competitive Alphascreen.

Results are given in words; binding and its absence hold for the method and conditions named. Some binding calls cover weakened binding; strength is not graded here. For some assays here: Tags and fused reporters may be left off the sequences shown.

B1: WS1 binder having the amino acid sequence of SEQ ID NO: 48 (designed binder)
chain: MASTSGVSDVPRDLEVVAATPTSLLISWDAPAVPVSKYVIYYWPGALISSMQAFKVPGSKSTATISGLKPGVLYSIVVDALTGDGQGSYVWDPITITYRTEGSGS
Take B1: in test [1], the binding entry is given as “binds”.

B2: WS-LI1 binder having the sequence of SEQ ID NO: 46 (designed binder)
chain: MGVSDVPRDLEVVAATPTSLLISWDAPAVTVRYYRITYGEYSSFFQHQGQYYHYIQEFTVPGSKSTATISGLKPGVDYTITVYAVTQHEHSQDSSKPISINYRTEIDKPSQ
For the molecule B2, the binding result in test [2] is on record as “binds”.

B3: WS-LI1 binder having the sequence of SEQ ID NO: 45 (designed binder)
chain: MGVSDVPRDLEVVAATPTSLLISWDAPAVTVRYYRITYGEYHAFFASNGKYYFYIQEFTVPGSKSTATISGLKPGVDYTITVYAVTDDTVHHGDSNYHSSKPISINYRTEIDKPSQ
Regarding B3, the binding result in test [2] is listed as “binds”.

B4: WS1 binder having the amino acid sequence of SEQ ID NO: 49 (designed binder)
chain: MASTSGVSDVPRDLEVVAATPTSLLISWDAPAVTVHSYYITYQELQHHSVPQGFQVPGSKSTATISGLKPGVAYQIAVYAFTGPGLPPSDAPPIVIYYRTEGSGS
Consider B4, for which, in test [1], the binding result is “binds”.

B5: WS-LI1 binder having the sequence of SEQ ID NO: 47 (designed binder)
chain: MGVSDVPRDLEVVAATPTSLLISWDAPAVTVRYYRITYGEFSQFVHSDGEYYQEYQEFTVPGSKSTATISGLKPGVDYTITVYAVTGQYDQDDEPSSKPISINYRTEIDKPSQ
Turning to B5, in test [2], the binding result is listed as “binds”.

These data come from patent US20130245238A1.
